Reference: the supplement of paper PMC3682954
Counter-ions that a name gives are not always drawn. ± gives the standard deviation of the averaged measurements. Some of the results follow. Single values are uncertain, as repeats are few or missing.

System: RAW 264.7
Experiment: HMGB1-induced TNF-alpha production relative to HMGB1-stimulated control; higher = more TNF-alpha secretion (less inhibition)
Conditions: stimulus: HMGB1 5 ug/ml, 18 h
[1] = compound concentration: 1 ug/ml

Structure (SMILES) | HMGB1-induced TNF-alpha production (compound concentration: 3 uM) [%] | HMGB1-induced TNF-alpha production [1] [%]
Oc1ccc(OCc2ccccc2)cc1 [Monobenzone] | 116 | –
CCCn1c(=O)c2c(ncn2C)n(CCC)c1=O [1,3-Dipropyl-7-methylxanthine] | 79.6 | –
C[C@H]1C[C@H]2[C@@H]3CCC4=CC(=O)C=C[C@]4(C)[C@@]3(F)[C@@H](O)C[C@]2(C)[C@@]1(O)C(=O)CO [Betamethasone] | 37.6 ± 12 | –
C[C@H]1C[C@H]2[C@@H]3CCC4=CC(=O)C=C[C@]4(C)[C@@]3(F)[C@@H](O)C[C@]2(C)[C@@]1(O)C(=O)CO | 38.7 | –
CC(C)C1=CC2=CC[C@@H]3[C@](C)(CCC[C@@]3(C)C(=O)O)[C@H]2CC1 [Abietic acid] | – | 54.8
COc1cc(O)c2c(=O)cc(-c3ccccc3)oc2c1 | – | 75.5
CC(=O)OCC1OC(Oc2cc(OC(C)=O)c3c(=O)c(-c4ccc(OC(C)=O)c(OC(C)=O)c4)coc3c2)C(OC(C)=O)C(OC(C)=O)C1OC(C)=O (centres undefined) [Orobole 7-O-Glucoside, Acetate] | – | 91.1
COC(=O)C1=C(C)NC(C)=C(C(=O)OCCCN2CCC(c3ccccc3)(c3ccccc3)CC2)[C@H]1c1cccc([N+](=O)[O-])c1 [Niguldipine] | 62.3 | –
COC(=O)Nc1nc2ccc(SC(C)C)cc2[nH]1 [Methiazole] | 159 | –
C=C1/C(=C\C=C2/CCC[C@]3(C)[C@@H]([C@H](C)/C=C/[C@@H](O)C4CC4)CC[C@@H]23)C[C@@H](O)C[C@@H]1O [Calcipotriene] | 72.3 ± 3.8 | –
C=C1/C(=C\C=C2/CCC[C@]3(C)[C@@H]([C@H](C)/C=C/[C@@H](O)C4CC4)CC[C@@H]23)C[C@@H](O)C[C@@H]1O | 95 | –
Cc1ccc(Cl)c(Nc2ccccc2C(=O)O)c1Cl [Meclofenamic acid sodium] | 114 | –
Cc1ccc(Cl)c(Nc2ccccc2C(=O)O)c1Cl | 101 | –
Cc1ccc(Cl)c(Nc2ccccc2C(=O)O)c1Cl [Meclofenamic acid sodium salt monohydrate] | 71.7 | –
O=C(NCCO[N+](=O)[O-])c1cccnc1 [Nicorandil] | 84.1 ± 16 | –
O=C(NCCO[N+](=O)[O-])c1cccnc1 | 112 | –
CCN1CCN(C(=O)N[C@@H](C(=O)N[C@@H]2C(=O)N3C(C(=O)O)=C(CSc4nnnn4C)CS[C@H]23)c2ccc(O)cc2)C(=O)C1=O [Cefoperazone acid] | 95.9 | –
CCN1CCN(C(=O)N[C@@H](C(=O)N[C@@H]2C(=O)N3C(C(=O)O)=C(CSc4nnnn4C)CS[C@H]23)c2ccc(O)cc2)C(=O)C1=O | 84.7 | –
CCN1CCN(C(=O)N[C@@H](C(=O)N[C@@H]2C(=O)N3C(C(=O)O)=C(CSc4nnnn4C)CS[C@H]23)c2ccc(O)cc2)C(=O)C1=O [Cefoperazone dihydrate] | 81.9 | –

2 entries drawn at random from the list so far:
Structure (SMILES) | HMGB1-induced TNF-alpha production (compound concentration: 3 uM) [%] | HMGB1-induced TNF-alpha production [1] [%]
O=C(NCCO[N+](=O)[O-])c1cccnc1 | 112 | –
C[C@H]1C[C@H]2[C@@H]3CCC4=CC(=O)C=C[C@]4(C)[C@@]3(F)[C@@H](O)C[C@]2(C)[C@@]1(O)C(=O)CO [Betamethasone] | 37.6 ± 12 | –
